Test results as given in the supplement of paper PMC10849652.
Some of the results follow.

Amino acid sequences for entries named in this document (tags omitted). A change or cut given only in a name is not applied to a line headed by its entry.
UniProt Q9UHB4: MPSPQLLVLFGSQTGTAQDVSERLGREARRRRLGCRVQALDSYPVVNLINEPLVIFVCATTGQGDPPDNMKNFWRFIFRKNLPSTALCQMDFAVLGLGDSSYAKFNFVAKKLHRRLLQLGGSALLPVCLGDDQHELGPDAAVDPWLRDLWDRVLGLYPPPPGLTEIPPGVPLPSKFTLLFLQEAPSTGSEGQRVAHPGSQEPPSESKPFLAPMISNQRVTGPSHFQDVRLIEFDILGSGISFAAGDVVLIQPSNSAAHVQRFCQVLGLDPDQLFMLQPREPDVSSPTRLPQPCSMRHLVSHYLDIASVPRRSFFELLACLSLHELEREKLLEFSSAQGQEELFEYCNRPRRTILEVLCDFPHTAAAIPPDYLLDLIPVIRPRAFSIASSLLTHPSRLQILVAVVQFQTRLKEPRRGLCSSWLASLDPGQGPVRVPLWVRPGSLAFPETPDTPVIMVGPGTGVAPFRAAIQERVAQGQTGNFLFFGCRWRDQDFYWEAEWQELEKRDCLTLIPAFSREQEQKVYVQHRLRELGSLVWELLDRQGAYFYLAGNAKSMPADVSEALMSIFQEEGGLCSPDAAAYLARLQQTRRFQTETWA
UniProt Q9BRA0: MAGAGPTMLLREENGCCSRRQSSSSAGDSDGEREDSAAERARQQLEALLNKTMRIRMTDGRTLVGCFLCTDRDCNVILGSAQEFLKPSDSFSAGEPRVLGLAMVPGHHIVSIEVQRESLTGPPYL
UniProt P46934: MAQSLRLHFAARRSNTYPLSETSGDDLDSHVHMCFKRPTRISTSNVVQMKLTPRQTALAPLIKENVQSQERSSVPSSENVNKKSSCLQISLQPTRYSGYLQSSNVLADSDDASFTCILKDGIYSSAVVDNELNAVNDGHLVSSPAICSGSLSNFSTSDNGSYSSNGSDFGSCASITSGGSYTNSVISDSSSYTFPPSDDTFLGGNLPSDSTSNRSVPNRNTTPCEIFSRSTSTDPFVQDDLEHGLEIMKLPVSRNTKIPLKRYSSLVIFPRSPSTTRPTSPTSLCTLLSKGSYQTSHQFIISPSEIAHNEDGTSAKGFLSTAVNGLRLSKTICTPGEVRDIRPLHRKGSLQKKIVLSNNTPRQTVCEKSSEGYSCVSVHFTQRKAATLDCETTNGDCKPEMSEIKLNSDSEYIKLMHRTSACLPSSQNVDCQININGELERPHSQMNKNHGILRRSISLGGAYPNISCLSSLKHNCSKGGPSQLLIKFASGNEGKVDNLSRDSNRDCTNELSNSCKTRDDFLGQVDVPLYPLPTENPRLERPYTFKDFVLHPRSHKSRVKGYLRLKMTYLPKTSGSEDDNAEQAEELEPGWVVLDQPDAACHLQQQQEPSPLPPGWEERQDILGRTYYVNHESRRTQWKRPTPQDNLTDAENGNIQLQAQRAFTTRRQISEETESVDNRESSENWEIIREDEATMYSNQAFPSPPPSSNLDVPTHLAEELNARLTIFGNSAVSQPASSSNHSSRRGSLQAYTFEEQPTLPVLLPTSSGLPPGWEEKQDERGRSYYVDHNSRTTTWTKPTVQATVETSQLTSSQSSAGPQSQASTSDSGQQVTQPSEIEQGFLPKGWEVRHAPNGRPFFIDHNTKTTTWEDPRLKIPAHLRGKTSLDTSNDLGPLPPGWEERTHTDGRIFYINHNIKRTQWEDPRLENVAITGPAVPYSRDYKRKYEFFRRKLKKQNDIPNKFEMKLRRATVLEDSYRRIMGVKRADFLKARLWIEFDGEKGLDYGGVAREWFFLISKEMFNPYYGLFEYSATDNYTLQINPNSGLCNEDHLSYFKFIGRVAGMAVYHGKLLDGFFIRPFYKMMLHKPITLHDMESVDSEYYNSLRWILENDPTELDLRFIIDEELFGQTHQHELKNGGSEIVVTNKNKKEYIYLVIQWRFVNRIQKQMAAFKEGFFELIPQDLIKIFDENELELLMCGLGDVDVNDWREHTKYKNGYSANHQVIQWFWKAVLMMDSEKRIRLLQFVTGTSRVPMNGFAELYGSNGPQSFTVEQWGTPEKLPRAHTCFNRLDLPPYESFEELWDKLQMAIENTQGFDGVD
UniProt Q8TBE9: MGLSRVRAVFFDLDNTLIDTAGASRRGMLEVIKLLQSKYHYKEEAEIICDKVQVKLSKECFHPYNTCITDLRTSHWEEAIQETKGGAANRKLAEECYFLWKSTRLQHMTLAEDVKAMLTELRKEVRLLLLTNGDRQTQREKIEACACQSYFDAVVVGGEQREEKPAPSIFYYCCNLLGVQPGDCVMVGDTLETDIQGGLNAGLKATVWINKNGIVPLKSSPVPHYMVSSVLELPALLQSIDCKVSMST
UniProt E9PAV3, whole entry, looked up: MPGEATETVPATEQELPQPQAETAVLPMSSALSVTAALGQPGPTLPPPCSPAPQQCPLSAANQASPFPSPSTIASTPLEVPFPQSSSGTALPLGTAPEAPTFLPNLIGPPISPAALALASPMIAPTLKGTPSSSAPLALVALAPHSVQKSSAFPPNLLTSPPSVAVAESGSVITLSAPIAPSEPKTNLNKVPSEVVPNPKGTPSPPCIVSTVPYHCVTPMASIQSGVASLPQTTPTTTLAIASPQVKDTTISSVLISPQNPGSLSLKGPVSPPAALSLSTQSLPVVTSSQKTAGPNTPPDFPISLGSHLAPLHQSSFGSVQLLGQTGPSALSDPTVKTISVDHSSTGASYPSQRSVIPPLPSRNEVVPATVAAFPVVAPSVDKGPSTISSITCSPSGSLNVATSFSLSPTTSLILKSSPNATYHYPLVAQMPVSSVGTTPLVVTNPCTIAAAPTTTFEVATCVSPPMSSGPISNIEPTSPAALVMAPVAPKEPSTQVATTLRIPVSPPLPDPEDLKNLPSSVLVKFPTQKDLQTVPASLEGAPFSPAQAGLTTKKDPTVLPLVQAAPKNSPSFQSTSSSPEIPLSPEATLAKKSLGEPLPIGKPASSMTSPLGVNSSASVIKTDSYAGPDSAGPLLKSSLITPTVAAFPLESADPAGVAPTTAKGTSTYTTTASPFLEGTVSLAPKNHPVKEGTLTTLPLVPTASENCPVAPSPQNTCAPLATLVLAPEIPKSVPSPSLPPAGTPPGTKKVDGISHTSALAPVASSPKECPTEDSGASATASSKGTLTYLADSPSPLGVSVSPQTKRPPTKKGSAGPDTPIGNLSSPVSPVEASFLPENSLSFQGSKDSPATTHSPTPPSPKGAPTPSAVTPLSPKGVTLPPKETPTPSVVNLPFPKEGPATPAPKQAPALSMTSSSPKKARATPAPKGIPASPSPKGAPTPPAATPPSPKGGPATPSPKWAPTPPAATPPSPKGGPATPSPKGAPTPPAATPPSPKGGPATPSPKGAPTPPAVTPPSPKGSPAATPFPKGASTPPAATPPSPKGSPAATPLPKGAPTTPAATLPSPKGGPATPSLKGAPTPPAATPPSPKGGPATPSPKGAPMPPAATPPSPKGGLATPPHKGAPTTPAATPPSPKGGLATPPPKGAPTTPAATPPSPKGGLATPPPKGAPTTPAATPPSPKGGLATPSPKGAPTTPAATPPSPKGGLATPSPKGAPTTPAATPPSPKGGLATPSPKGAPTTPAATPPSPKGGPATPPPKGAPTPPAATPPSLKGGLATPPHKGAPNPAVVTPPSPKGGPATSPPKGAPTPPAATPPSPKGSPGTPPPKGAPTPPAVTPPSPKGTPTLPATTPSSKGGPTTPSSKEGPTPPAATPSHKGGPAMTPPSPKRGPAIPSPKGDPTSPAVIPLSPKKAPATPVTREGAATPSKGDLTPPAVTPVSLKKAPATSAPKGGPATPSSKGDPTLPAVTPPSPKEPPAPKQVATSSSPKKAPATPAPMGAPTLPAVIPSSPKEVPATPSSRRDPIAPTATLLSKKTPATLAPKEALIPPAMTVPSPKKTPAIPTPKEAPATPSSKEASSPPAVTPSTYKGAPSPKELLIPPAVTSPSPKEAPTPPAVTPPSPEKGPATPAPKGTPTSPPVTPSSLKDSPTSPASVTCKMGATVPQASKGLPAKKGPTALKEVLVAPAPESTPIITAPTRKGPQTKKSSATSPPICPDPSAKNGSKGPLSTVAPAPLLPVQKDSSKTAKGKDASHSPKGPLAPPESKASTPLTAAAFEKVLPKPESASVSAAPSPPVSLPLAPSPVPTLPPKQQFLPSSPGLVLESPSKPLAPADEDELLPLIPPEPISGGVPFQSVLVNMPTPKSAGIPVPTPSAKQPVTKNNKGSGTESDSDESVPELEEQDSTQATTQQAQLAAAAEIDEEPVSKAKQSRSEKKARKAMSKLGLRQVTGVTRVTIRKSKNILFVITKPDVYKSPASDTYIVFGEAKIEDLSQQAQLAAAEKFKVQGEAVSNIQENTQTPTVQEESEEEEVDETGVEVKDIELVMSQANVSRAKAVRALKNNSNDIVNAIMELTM
UniProt P28331, whole entry, looked up: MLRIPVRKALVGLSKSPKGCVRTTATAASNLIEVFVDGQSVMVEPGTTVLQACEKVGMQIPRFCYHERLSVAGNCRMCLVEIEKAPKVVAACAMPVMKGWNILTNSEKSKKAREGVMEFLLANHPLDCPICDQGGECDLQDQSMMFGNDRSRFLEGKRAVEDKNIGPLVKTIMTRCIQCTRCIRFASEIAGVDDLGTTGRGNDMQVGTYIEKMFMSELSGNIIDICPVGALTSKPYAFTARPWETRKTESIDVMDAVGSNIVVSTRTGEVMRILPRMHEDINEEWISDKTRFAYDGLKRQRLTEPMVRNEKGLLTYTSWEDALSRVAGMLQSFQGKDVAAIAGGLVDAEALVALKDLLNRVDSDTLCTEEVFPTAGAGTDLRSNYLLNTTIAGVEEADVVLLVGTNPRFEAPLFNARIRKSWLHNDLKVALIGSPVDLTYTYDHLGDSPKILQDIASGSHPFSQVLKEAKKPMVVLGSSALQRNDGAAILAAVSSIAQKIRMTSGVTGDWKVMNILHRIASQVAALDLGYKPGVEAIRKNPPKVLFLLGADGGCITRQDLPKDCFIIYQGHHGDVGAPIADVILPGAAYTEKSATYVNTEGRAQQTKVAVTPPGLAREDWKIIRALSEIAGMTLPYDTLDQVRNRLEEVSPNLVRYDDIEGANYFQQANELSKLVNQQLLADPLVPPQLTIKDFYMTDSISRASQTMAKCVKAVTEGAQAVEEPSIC

Experiments:
Assay in all cases: log2 fold change, soluble protein after heating vs DMSO (PISA); higher = thermal stabilisation; K562 cells, 10 uM, 30 min; active = over 0.2 and 3.5 SD of the protein, either way, in both replicates (recomputed)
[1] = compound: C1=CC=C(C=C1)[C@H](COC2=CC3=C(C=C2)NC(=O)N3)NC(=O)C4=CC=CN(C4=O)CC5=CC(=C(C=C5)F)F
Summary of the method: (§1)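 Values are thermal stability changes relative to control samples and are taken from duplicates. They are stated as log2 fold changes. Before quantification by TMTpro 16plex LC-MS/MS with equalised channel sums, K562 cells at 2×10^6 cells/mL were treated with 10 μM compound for 30 min, heated in aliquots for 3 min across 48°C-58°C, pooled, extracted in PBS with 0.5% NP-40 at 4°C, and centrifuged at 21,000xg for 90 min to give the soluble supernatant.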

[2] = compound: CC1=C(SC2=C1C(=N[C@H](C3=NN=C(N32)C)CC(=O)N)C4=CC=C(C=C4)Cl)C
Summary of the method: as §1

[3] = compound: CC1=C2C(=CC=C1)N=C(N(C2=O)C3=CC=CC=C3C)CN4C=NC5=C(N=CN=C54)N
Summary of the method: as §1

[4] = compound: Cc1sc2c(c1C)C(c1ccc(Cl)cc1)=N[C@@H](CC(=O)OC(C)(C)C)c1nnc(C)n1-2
Summary of the method: as §1

[5] = compound: c1ccc([C@@H]2C[C@H]2NC2CCNCC2)cc1
Summary of the method: as §1

Measured: log2 fold change

NDOR1 isoform 2 (UniProt Q9UHB4)
inactive: [1] 0.057 | [2] 0.042 | [3] 0.075 | [4] -0.015 | [5] -0.036

NAA38 isoform 2 (UniProt Q9BRA0)
inactive: [1] 0.038 | [2] 0.057 | [3] -0.013 | [4] -0.029 | [5] -0.124

NEDD4 isoform 4 (UniProt P46934)
inactive: [1] -0.006 | [2] 0.103 | [3] 0.081 | [4] 0.002 | [5] -0.007

NANP (UniProt Q8TBE9)
inactive: [1] -0.041 | [2] 0.053 | [3] 0.105 | [4] 0.023 | [5] 0.013

NACA (UniProt E9PAV3)
inactive: [1] 0.012 | [2] -0.024 | [3] -0.057 | [4] 0.057 | [5] 0.071

NDUFS1 isoform 2 (UniProt P28331)
inactive: [1] -0.021 | [2] 0.056 | [3] 0.075 | [4] -0.041 | [5] -0.024
